The list shows a part of the results.
What follows are sequences tested against OsWRKY34 (Oryza sativa, UniProt Q0JBA9 1-250) (assay: protein-binding microarray (RPBM); PBS, 2% BSA, 51.3 ng/ul salmon testes DNA, 50 uM zinc acetate, 200 nM TF, 25 C, 1 h; high values mean tight binding). Settings: protein: recombinant; tags: N-terminal polyhistidine and DsRed monomer fusion (pET32a); label: CyDye5-dUTP incorporated in the synthesized complementary strand; 3' TTTTT single-stranded linker to array surface; dsDNA, one strand shown.
In short: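 The binding signal is fluorescence intensity per array feature (arbitrary units). Readings came from an Axon 4000B scanner after a washed, 2% BSA-blocked, double-stranded custom Agilent array had been incubated for 1 h at 25 °C with 200 nM protein and 50 µM zinc acetate. The protein was a Ni–NTA-purified transcription factor fused N-terminally to polyhistidine and DsRed, expressed in E. coli BL21-CodonPlus.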

The chains behind the UniProt entries cited, without tags or fusion partners.
UniProt Q0JBA9, entry or part of it: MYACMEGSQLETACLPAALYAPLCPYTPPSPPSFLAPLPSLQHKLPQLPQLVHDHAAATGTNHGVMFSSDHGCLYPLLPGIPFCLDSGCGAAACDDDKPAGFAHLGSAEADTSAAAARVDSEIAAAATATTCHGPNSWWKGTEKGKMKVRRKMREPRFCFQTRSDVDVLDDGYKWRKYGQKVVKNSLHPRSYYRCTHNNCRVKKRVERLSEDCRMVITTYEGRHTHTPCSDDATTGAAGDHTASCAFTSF

Sequence | binding signal
AAAACTGGCCCGGTCTATCATGACGCACAGCCTGCTCAGCCGGAGTCACCTAGTGCAG | 8090 fluorescence intensity (a.u.)
ATCTTTTCGCTTATGCTTATACTTATCAGCCACAATTTTACGGAGTCACCTAGTGCAG | 9720 fluorescence intensity (a.u.)
CGCCAATCCACCGCATCATCGGCTTCCCTCCGGCTCGAGCCGGAGTCACCTAGTGCAG | 12800 fluorescence intensity (a.u.)
CAATAATCTTGTCTTTAGAGTGTATGCATTTGGTTTGTATCGGAGTCACCTAGTGCAG | 8630 fluorescence intensity (a.u.)
TACTCGGTACTCCTTACCCATTAGTGCTATGTAAAGCTGCCGGAGTCACCTAGTGCAG | 9460 fluorescence intensity (a.u.)
GCTCGTGTCACTTTCTCGGCAACTTTACCTGCTCTTTTTACGGAGTCACCTAGTGCAG | 14600 fluorescence intensity (a.u.)
TCCTCCTTTGACCCAGTTAACTTCGCTCCCTTGTTTCCTTCGGAGTCACCTAGTGCAG | 9690 fluorescence intensity (a.u.)
ATATTTACTGAATACCTGGTAATCCATCTCTTATACATTCCGGAGTCACCTAGTGCAG | 8930 fluorescence intensity (a.u.)
TTTACATATCATGTACAGGTAGCGTCGTATTTTTATTTTGCGGAGTCACCTAGTGCAG | 8120 fluorescence intensity (a.u.)
GCCAACTCTCTTTACTATTTAGGGTGTGTTTAGTTCACACCGGAGTCACCTAGTGCAG | 8400 fluorescence intensity (a.u.)
CGTTGTTTTCATGATTGTCACCATATGTGGTCTGCATTATCGGAGTCACCTAGTGCAG | 8980 fluorescence intensity (a.u.)
AAAAGGCGTTTGCTTGTTTTTGCTGTGGGTTAATTCGCCTCGGAGTCACCTAGTGCAG | 8090 fluorescence intensity (a.u.)
CATTCACCGCAACACGCGTGTGTTTTTTGATCGATTCAATCGGAGTCACCTAGTGCAG | 10400 fluorescence intensity (a.u.)
TCTAGCTAACCATGCCGGCATGCCCAATAATGCTGTTCCACGGAGTCACCTAGTGCAG | 8980 fluorescence intensity (a.u.)
TGGTTCCTTTTGTATGTGATCGCTCTGTACTTACATTCGTCGGAGTCACCTAGTGCAG | 8030 fluorescence intensity (a.u.)
TTTACTTTTTTTCTCCTTTCTTATCCCTTTTTTTCTCCTTCGGAGTCACCTAGTGCAG | 11200 fluorescence intensity (a.u.)
GATCGACCCGAGCTCCTTCCGCCTTGCTCTCTCACCGACGCGGAGTCACCTAGTGCAG | 8660 fluorescence intensity (a.u.)
ACACGGCATGTGTTGGGTGGTAGTAGATGGGTTTAGTTGGCGGAGTCACCTAGTGCAG | 8280 fluorescence intensity (a.u.)
GTAAGTGTAATTCCTTTCTACTCCCTCGTTTTAGGTTACACGGAGTCACCTAGTGCAG | 11100 fluorescence intensity (a.u.)
GAGAGAGAGAGAGAGTCCACGCATCCCGCGCGCCTCCTTTCGGAGTCACCTAGTGCAG | 10800 fluorescence intensity (a.u.)
CTCTGTTGGTTTCTTGCGGTTTTGATTATTTGTTTGTGGTCGGAGTCACCTAGTGCAG | 11900 fluorescence intensity (a.u.)

Sequence | binding signal
ATTAATGGCAAAAGTTCACAAACTTTGACTTTTGAAACGCCGGAGTCACCTAGTGCAG | 9750 fluorescence intensity (a.u.)
GACCTTTCCAGACTCCGTTGCAATTCATCTCTCACCACCCCGGAGTCACCTAGTGCAG | 8820 fluorescence intensity (a.u.)
GAAATACATGCATCACATCCCACGACGTCGCCGCCGATCGCGGAGTCACCTAGTGCAG | 11200 fluorescence intensity (a.u.)
GTGAAGATTTCTGGTATTAGGGATTAGGGATGTCATACTGCGGAGTCACCTAGTGCAG | 8990 fluorescence intensity (a.u.)
GGAGAGAATTCCCTCTACGTAGATCCAGTCCAAAACTGAACGGAGTCACCTAGTGCAG | 12700 fluorescence intensity (a.u.)
GGAAGCATGATCGGGAGGTTTTAGGAAAGATGGCTAATTACGGAGTCACCTAGTGCAG | 8810 fluorescence intensity (a.u.)
GTAGTGGATTATCGAGCCCCTGTTGTTCCATGAGGATCCGCGGAGTCACCTAGTGCAG | 8310 fluorescence intensity (a.u.)
TTTGCCCGTGTCATCACGCTTCCATCAGTATCACGCGTTCCGGAGTCACCTAGTGCAG | 13500 fluorescence intensity (a.u.)
CACCCAAACCCTAGCAACCTCACGCCGCCACCTCCCTCGCCGGAGTCACCTAGTGCAG | 8670 fluorescence intensity (a.u.)
TACTCTATACTCTATTTCTAATATTCCTTATTTTTAATTCCGGAGTCACCTAGTGCAG | 10300 fluorescence intensity (a.u.)
ATTCCAGTCCTCTCCATGGTAGTCAACGTCAATTTCTCACCGGAGTCACCTAGTGCAG | 8440 fluorescence intensity (a.u.)
TGCCACCGCCGGCGCCTCTTCCGCTGAATCCATCTCCACCCGGAGTCACCTAGTGCAG | 9920 fluorescence intensity (a.u.)
TCTTGTTTTTTGCACGCGTGTTTCCCGAATACGTATTTTACGGAGTCACCTAGTGCAG | 10500 fluorescence intensity (a.u.)
ACCTGGCCCAACTCCCCGTTTTCCCATGGTAACGATAGCCCGGAGTCACCTAGTGCAG | 8020 fluorescence intensity (a.u.)
AATAGTTTCCCGTCGATCATGTTCTAATGTTTTTCCTTGTCGGAGTCACCTAGTGCAG | 8370 fluorescence intensity (a.u.)
GTGATAAAGGCTCGTTGTTTTGGTTATGCTTATTTTTATACGGAGTCACCTAGTGCAG | 14600 fluorescence intensity (a.u.)
GCTCGCCGAATCGCTTTTTATTTTTCTCTCTCCAACCCTACGGAGTCACCTAGTGCAG | 8170 fluorescence intensity (a.u.)
ATCCTATCCTACGTGTCATATGCTCCACATCAGCGAGCGGCGGAGTCACCTAGTGCAG | 9000 fluorescence intensity (a.u.)
ACTCTCCAAATCCATCCATCGATCGAGAATTCCTCTTCTCCGGAGTCACCTAGTGCAG | 10600 fluorescence intensity (a.u.)
ATTCTCCCCTGCGCCGCCGCCGCCGCCGCCGCCTCAATCGCGGAGTCACCTAGTGCAG | 8090 fluorescence intensity (a.u.)
AAAACGCGTCGGCTCTCGAACCTTCTTGCATTGTGTCGTCCGGAGTCACCTAGTGCAG | 9150 fluorescence intensity (a.u.)

Seven entries drawn at random from the list so far, as already listed:
Sequence | binding signal
AAAACGCGTCGGCTCTCGAACCTTCTTGCATTGTGTCGTCCGGAGTCACCTAGTGCAG | 9150 fluorescence intensity (a.u.)
AAAAGGCGTTTGCTTGTTTTTGCTGTGGGTTAATTCGCCTCGGAGTCACCTAGTGCAG | 8090 fluorescence intensity (a.u.)
ATATTTACTGAATACCTGGTAATCCATCTCTTATACATTCCGGAGTCACCTAGTGCAG | 8930 fluorescence intensity (a.u.)
GGAGAGAATTCCCTCTACGTAGATCCAGTCCAAAACTGAACGGAGTCACCTAGTGCAG | 12700 fluorescence intensity (a.u.)
CTCTGTTGGTTTCTTGCGGTTTTGATTATTTGTTTGTGGTCGGAGTCACCTAGTGCAG | 11900 fluorescence intensity (a.u.)
CGTTGTTTTCATGATTGTCACCATATGTGGTCTGCATTATCGGAGTCACCTAGTGCAG | 8980 fluorescence intensity (a.u.)
ATTAATGGCAAAAGTTCACAAACTTTGACTTTTGAAACGCCGGAGTCACCTAGTGCAG | 9750 fluorescence intensity (a.u.)

The results go on.

Sequence | binding signal
CTGTCTTCACCGTGCCGCTCCTTTCCTTCCATTTCATCTCCGGAGTCACCTAGTGCAG | 8440 fluorescence intensity (a.u.)
CATCTCGTGCTTGTATCCTTGTTCTTCATCTTCTCTCACCCGGAGTCACCTAGTGCAG | 10400 fluorescence intensity (a.u.)
CCCTAACACCCAGACCAGAATCAGCAGAAGCTGTCCTATTCGGAGTCACCTAGTGCAG | 8130 fluorescence intensity (a.u.)
CCGTCCTCATCCATCCTAACCACCACCTTCTTATAAATTACGGAGTCACCTAGTGCAG | 9380 fluorescence intensity (a.u.)
CTGTTACTTCTTTTCTACTGACGTTGATTTAAAATTTTATCGGAGTCACCTAGTGCAG | 8980 fluorescence intensity (a.u.)
GCCGCCACCGCAACATTCTCATTTCTCTCTCTCGTCCCCGCGGAGTCACCTAGTGCAG | 8900 fluorescence intensity (a.u.)
ATTTTTTCTTATCTCTCACTCGATTTTCTCACTAAAATTTCGGAGTCACCTAGTGCAG | 12400 fluorescence intensity (a.u.)
TACCTGTTTTGAGCTCTTTTTCAGAAATTTCTTCTTATCTCGGAGTCACCTAGTGCAG | 11200 fluorescence intensity (a.u.)
CCTCCCACTTCGAATTATTTATTTTTGGGAATATTTTTCTCGGAGTCACCTAGTGCAG | 10800 fluorescence intensity (a.u.)
TTGTTGAATTTGCTATTATTATTTTTCGCTTCCATAATACCGGAGTCACCTAGTGCAG | 9250 fluorescence intensity (a.u.)
CAATGTGGTCACGTGAATTCTCTCTGTCAGTTTTGATGTGCGGAGTCACCTAGTGCAG | 9180 fluorescence intensity (a.u.)
AGTTCTGTTGCAAGTACTCTTGCCGGCGTCTTGTCCACACCGGAGTCACCTAGTGCAG | 8960 fluorescence intensity (a.u.)
TGAAGCATGTGGTGGGCATTTTCGTCTTTCTCGAATTCATCGGAGTCACCTAGTGCAG | 9980 fluorescence intensity (a.u.)
CCAATCCGCGCAATCCCCGCCTCCGCGATCACCAAATCCGCGGAGTCACCTAGTGCAG | 8340 fluorescence intensity (a.u.)
ACAGAACGAACCACCTATACGTACGTTTTCTCTCTTTTGACGGAGTCACCTAGTGCAG | 8040 fluorescence intensity (a.u.)
TAGTTGTTGACAATTGCATATTAGTTGCACCATTATATATCGGAGTCACCTAGTGCAG | 8400 fluorescence intensity (a.u.)
GCCCCGCCGCCGCACACCATCACCGTCCTCGAAATGTCGACGGAGTCACCTAGTGCAG | 8150 fluorescence intensity (a.u.)
AACGTACGCACATACACACCCCTTACGAATACACACACGCCGGAGTCACCTAGTGCAG | 8100 fluorescence intensity (a.u.)
ACTGTCTTAAATTACTGCTGCAGTTAGGCACACATCGTTTCGGAGTCACCTAGTGCAG | 8930 fluorescence intensity (a.u.)
GTTCGAGTATAAGCTTTTTTTTGGTCAATTGTATTCATCTCGGAGTCACCTAGTGCAG | 9450 fluorescence intensity (a.u.)
CTTGTTGCAGGCCAAATCTTTCTTCATTTTTGGAATTAATCGGAGTCACCTAGTGCAG | 8290 fluorescence intensity (a.u.)

Sequence | binding signal
TTGTTCGGTTAGATTATGGGGATTTTTTTTCCTTTTCTTTCGGAGTCACCTAGTGCAG | 9160 fluorescence intensity (a.u.)
TGTATATAGCAAGCTTCGGTTACTCGCATGTTCTTATTTACGGAGTCACCTAGTGCAG | 8200 fluorescence intensity (a.u.)
ACATCTGCTTCCCAGCATCCTGCAACTTTGGTTATAAGGTCGGAGTCACCTAGTGCAG | 8150 fluorescence intensity (a.u.)
TTTTCCAGATCAGATGTCTCTCTTGCCTGCACACGCGTTCCGGAGTCACCTAGTGCAG | 8640 fluorescence intensity (a.u.)
CATTAGCTAGCTAGCCTCTCCAATCATTTACAGATTAGTTCGGAGTCACCTAGTGCAG | 8400 fluorescence intensity (a.u.)
TTTTTGTTGACTAAAGACAAATGTTGTGTACGCGTAAGTACGGAGTCACCTAGTGCAG | 8770 fluorescence intensity (a.u.)
CACCCTCAATTCAATGGATCACTTAGTTTATTGGAAATCTCGGAGTCACCTAGTGCAG | 8530 fluorescence intensity (a.u.)
GGTTGACTATTGCTGTGGACCTGCAAGTGTTAGGAGTACTCGGAGTCACCTAGTGCAG | 8100 fluorescence intensity (a.u.)
GGGTGGTGGTGCTTATGAAGCGAGCGCGCGACACGCGAGGCGGAGTCACCTAGTGCAG | 8620 fluorescence intensity (a.u.)
TATCCAAATTTCCAAACTGCTGCTCCTACTTGCTCTCTCCCGGAGTCACCTAGTGCAG | 8520 fluorescence intensity (a.u.)
AATAGCCCACCACAGGCTGGCATCCTTATCTTCTCCCTCTCGGAGTCACCTAGTGCAG | 8050 fluorescence intensity (a.u.)
GTCCAACCAAACGCGCACCCACCAACGCCACCCGAAGCTTCGGAGTCACCTAGTGCAG | 11500 fluorescence intensity (a.u.)
TTAGGGCGGCAGGGGCTATTTCTGTAATTTTTTTTTTTTGCGGAGTCACCTAGTGCAG | 12800 fluorescence intensity (a.u.)
CTCCTCTTCCTCGCCGGCGGCGGTCGCCTCTGAGACCGCTCGGAGTCACCTAGTGCAG | 8670 fluorescence intensity (a.u.)
GCCTCCTCCTCCCAATAGTGAGTTTTTCGATCTCTTTTTTCGGAGTCACCTAGTGCAG | 8210 fluorescence intensity (a.u.)
GAACCGTCCGGGCCTCTAACATCAGCCCATGTATCCATCGCGGAGTCACCTAGTGCAG | 9280 fluorescence intensity (a.u.)
GCCATTTCGCCATTTCGTCGAGAGGTTGCTGTGCCAGTCACGGAGTCACCTAGTGCAG | 9600 fluorescence intensity (a.u.)
TTTGGCAACACTTTTATATTTTGGTCGTTCTTAGGTGATTCGGAGTCACCTAGTGCAG | 8950 fluorescence intensity (a.u.)
CACTGACTCCTCCTCACTTCGCATTGATTCGATCACTCTGCGGAGTCACCTAGTGCAG | 9870 fluorescence intensity (a.u.)
ATTCAGCTCTGAAGTGAAAATACACGCGCATCTGAATTTCCGGAGTCACCTAGTGCAG | 8150 fluorescence intensity (a.u.)
TTCACACCACACCAACATTCGCTAGCTCACTCACTCTACCCGGAGTCACCTAGTGCAG | 8790 fluorescence intensity (a.u.)

Reference: article PMC7819943, “Rice protein-binding microarrays: a tool to detect cis-acting elements near promoter regions in rice”
